# Some entries share one result that the patent states for a list of compounds. For part of these data: For at least one compound, name, drawing or mass did not settle the structure.
# Columns and labels:
# [1] = tested on: human colon cancer cell line (Colo205) xenograft; test: In vivo tumor growth inhibition assay, nude mice s.c. implanted tumor model; conditions: 40 mg/Kg
# Protocol: The human colon cancer cell line (Colo205) obtained from the American Type Culture Collection (Rockville, Md.) was used for the xenograft model. The cell line was maintained in growth medium supplemented with L-glutamine, ribonucleosides, deoxyribonucleosides, 10% FCS, and the following antimicrobial agents: 100 IU/ml penicillin, […] streptomycin, and […] amphotericin B. Cultures were established in 75-cm^2 flasks (Costar, Cambridge, Mass.), maintained at 37° C. in a humidified atmosphere with 5% CO2 in air, and subcultured every 4˜7 days with 0.25% trypsin in HBSS (Invitrogen Life Technologies, Carlsbad, Calif.). For in vivo tumor growth, cells (1×10^7) suspended in 100 μl of PBS were inoculated in the flanks of 5-week-old female athymic BALB/cAnNCij-nu/nu mice (Charles River, Kanagawa, Japan). Seven days after inoculation (day 7), mice with tumors measuring 6-7 mm in diameter were randomly separated into 3 groups with five mice in each group. […] Tumor size was measured twice weekly until day 30. Tumor volume (TV) was calculated as follows: volume=[length (mm)×width (mm)^2]×0.52. The tumor growth for each group was expressed by the median values of the ratio between the tumor volume measured at a specific day to the initial tumor volume measured at the day of first dosing.
# [2] = tested on: tumor cell; test: Cytotoxicity assay (MTS); type: cell-based; conditions: incubation for three days; read-out: IC50, tumor cell growth inhibition (MTS)
# Protocol: The efficacy of a test compound in inhibiting tumor cell growth was analyzed using a MTS assay. The MTS assay is a calorimetric method for the determination of viable cells in proliferation by using a tetrazolium compound (3-(4,5-dimethylthiazol-2-yl)-5-(3-[…])-2-(4-sulfophenyl)-2H-tetrazolium, inner salt; MTS) and an electron-coupling agent (phenazine methosulfate; PMS). The MTS reagent is converted by dehydrogenase enzymes in metabolically active cells into a formazan that is soluble in a tissue culture medium.
# In this assay, tumor cell suspensions (30 μl/well) were seeded into 384-well flat-bottomed tissue culture plates at an appropriate density overnight. A fresh medium (3 μl/well) containing varying concentrations of a test compound or vehicle was added to the culture followed by incubation for three days. […] Absorbance (a parameter proportional to the cell mass) was measured at 490 nm using a Multiskan (Thermo Electron Corporation, Waltham, Mass.). Inhibition effects were expressed as corrected T/C values for each test compound according to the following equation: […]
# where T is the mean absorbance of the treated cells, C is the mean absorbance of the controls, and Blank is the mean absorbance of the cell free well.
compound,measurement,setting,value
Cc1ccc(C(=O)N(CCN)C(c2nc3c(oc4ccc(F)cc43)c(=O)n2Cc2ccc(Cl)o2)C(C)C)cc1 (stereo not drawn) [Compound 90],tumor growth inhibition at day 17,"[1]; q3dx3, day 17",more than 80%
Cc1ccc(C(=O)N(CCN)C(c2nc3c(oc4ccc(Cl)cc43)c(=O)n2Cc2cc(C)cs2)C(C)C)cc1 (stereo not drawn) [Compound 94],tumor growth inhibition at day 20,"[1]; q3dx3, day 20",more than 80%
Cc1ccc(C(=O)N(CCCN)C(c2nc3n(c(=O)c2Cc2ccccc2)Cc2ccccc2-3)C(C)C)cc1 (stereo not drawn) [Compound 150],IC50,[2],< 30 µM

# — US20090214529A9, “KINESIN INHIBITORS” (TaiGen Biotechnology Co., Ltd., priority 2007, published 2009)
